Test results taken from patent US7671023B2 (Amylin Pharmaceuticals, Inc., priority 2005, dated 2010).
At least one compound was matched to its structure with a doubt left.

Tested on: mice
Experiment: phencyclidine (PCP)-induced locomotion test
Assay type: in vivo, mouse
Description: These specific behavioral tests are known to be sensitive to anxiolytic, antidepressant, or antipsychotic drugs.
The PCP-induced locomotion test is used with the open field activity chambers and measures locomotion, rearing, and stereotypic activity under amphetamine/PCP-induced conditions. The test has predictive validity for some antipsychotic drugs that normalize the hyperactivity and stereotypic behavior seen with amphetamine and PCP. See, for example, Williams et al. (2006) Prog. Neuropsychopharmacol. Biol. Psychiatry 30:239-243. […] The animals were then placed in the center of an open field and activity was recorded for 60 minutes. […] CZP is an atypical, second generation antipsychotic drug has a mixed receptor profile, including the dopamine receptor.

Compound: CN1CCN(C2=Nc3cc(Cl)ccc3Nc3ccccc32)CC1 [clozapine, reference compound]
- baseline activity (agent alone, without PCP): did affect baseline activity
- rearing activity and PCP-induced rearing activity (open field, with and without 5 mg/kg PCP): reduced rearing activity and PCP-induced rearing activity
- total distance traveled (rat amylin 0.1, 1.0 or 10 mg/kg or 3 mg/kg clozapine 15-30 minutes prior to 5 mg/kg PCP, total, central, and peripheral, 60 minutes, FIG. 6): significantly reduced the total distance traveled
